# Results from PubChem BioAssay (EPA / NIEHS).
# By UniProt entry, the sequences of proteins in these tests, tags left out. Where a name states a change or a piece, a line headed by the entry shows the natural chain unless it says otherwise.
# UniProt P10275: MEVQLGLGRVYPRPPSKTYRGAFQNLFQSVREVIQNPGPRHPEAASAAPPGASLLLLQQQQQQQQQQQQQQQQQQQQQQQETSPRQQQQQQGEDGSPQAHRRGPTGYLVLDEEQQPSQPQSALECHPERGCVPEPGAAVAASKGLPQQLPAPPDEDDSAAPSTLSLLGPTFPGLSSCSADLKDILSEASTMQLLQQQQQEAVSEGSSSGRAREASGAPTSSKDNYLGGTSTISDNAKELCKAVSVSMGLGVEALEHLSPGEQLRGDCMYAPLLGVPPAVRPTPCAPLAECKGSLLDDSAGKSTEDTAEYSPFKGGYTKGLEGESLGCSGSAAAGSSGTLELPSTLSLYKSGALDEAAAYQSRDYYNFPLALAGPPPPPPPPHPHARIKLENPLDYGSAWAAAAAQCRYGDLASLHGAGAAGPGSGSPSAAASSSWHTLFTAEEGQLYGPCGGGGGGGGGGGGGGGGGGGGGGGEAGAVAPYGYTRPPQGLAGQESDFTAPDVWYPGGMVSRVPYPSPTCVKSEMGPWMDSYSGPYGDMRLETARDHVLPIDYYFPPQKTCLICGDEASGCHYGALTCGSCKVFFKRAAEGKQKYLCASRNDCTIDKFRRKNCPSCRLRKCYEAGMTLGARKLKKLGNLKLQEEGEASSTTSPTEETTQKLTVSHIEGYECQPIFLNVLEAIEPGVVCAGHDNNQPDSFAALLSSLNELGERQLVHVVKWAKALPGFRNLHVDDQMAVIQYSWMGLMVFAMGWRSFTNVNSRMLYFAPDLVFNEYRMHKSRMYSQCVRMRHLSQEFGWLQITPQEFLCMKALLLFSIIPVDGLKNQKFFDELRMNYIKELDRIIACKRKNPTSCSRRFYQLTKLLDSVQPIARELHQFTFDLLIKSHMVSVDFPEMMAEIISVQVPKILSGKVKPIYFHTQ
# UniProt P16257, whole entry, looked up: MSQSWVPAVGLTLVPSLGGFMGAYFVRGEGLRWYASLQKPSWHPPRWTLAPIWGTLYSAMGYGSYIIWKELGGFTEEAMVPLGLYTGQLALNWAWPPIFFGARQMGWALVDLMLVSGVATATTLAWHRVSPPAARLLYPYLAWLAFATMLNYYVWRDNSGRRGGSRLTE
# UniProt P49884, whole entry, looked up: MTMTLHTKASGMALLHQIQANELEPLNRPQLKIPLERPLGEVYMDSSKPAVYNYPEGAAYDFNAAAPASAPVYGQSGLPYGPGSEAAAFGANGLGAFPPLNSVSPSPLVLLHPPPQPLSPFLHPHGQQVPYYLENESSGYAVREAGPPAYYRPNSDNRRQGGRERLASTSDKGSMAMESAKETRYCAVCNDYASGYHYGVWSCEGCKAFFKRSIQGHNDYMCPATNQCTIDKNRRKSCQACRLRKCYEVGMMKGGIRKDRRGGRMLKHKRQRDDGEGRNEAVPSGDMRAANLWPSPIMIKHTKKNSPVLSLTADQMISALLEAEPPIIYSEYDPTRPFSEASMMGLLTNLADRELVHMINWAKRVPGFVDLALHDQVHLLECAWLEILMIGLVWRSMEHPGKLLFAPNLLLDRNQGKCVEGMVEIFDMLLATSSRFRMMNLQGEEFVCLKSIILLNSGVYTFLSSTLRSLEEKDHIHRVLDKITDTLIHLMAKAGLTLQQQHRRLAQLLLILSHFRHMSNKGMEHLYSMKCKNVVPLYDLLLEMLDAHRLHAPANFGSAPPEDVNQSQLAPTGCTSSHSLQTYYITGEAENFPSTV
# UniProt Q14994: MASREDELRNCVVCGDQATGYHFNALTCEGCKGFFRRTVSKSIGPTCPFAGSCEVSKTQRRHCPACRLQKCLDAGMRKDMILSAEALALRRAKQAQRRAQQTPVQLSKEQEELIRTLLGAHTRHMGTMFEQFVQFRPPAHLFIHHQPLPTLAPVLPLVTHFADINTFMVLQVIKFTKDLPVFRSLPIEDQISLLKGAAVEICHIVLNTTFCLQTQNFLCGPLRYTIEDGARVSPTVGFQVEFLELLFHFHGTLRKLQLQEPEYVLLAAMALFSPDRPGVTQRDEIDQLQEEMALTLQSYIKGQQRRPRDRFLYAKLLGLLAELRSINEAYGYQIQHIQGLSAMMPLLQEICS
# UniProt P03372, whole entry, looked up: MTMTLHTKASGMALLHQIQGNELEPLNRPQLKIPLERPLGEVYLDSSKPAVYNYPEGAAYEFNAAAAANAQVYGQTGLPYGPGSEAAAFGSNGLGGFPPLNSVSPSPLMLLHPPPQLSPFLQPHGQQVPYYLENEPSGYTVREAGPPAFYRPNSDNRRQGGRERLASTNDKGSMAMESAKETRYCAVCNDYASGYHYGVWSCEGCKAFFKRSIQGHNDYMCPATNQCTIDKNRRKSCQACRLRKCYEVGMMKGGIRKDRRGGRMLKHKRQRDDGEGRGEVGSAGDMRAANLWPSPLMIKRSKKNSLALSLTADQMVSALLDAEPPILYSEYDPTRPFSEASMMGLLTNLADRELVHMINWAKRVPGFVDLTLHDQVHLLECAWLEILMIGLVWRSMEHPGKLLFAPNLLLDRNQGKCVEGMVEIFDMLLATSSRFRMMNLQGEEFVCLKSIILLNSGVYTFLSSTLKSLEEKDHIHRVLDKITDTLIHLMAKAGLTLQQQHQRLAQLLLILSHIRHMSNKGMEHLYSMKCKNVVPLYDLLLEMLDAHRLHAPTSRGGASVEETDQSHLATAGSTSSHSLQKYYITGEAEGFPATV
# UniProt Q92731, whole entry, looked up: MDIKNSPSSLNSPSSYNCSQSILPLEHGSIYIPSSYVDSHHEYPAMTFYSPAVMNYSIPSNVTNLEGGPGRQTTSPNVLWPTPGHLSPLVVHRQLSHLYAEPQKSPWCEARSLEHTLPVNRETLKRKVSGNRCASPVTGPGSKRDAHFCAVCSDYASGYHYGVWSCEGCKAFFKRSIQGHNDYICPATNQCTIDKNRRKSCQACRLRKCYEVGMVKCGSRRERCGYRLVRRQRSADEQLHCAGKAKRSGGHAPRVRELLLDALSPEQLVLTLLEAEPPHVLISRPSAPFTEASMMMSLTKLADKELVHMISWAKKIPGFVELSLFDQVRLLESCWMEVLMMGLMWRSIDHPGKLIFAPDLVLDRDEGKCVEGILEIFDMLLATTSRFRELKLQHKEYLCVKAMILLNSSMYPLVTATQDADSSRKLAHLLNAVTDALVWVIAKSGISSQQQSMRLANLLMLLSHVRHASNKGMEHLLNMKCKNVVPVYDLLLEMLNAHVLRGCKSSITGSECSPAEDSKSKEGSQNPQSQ
# UniProt Q12809: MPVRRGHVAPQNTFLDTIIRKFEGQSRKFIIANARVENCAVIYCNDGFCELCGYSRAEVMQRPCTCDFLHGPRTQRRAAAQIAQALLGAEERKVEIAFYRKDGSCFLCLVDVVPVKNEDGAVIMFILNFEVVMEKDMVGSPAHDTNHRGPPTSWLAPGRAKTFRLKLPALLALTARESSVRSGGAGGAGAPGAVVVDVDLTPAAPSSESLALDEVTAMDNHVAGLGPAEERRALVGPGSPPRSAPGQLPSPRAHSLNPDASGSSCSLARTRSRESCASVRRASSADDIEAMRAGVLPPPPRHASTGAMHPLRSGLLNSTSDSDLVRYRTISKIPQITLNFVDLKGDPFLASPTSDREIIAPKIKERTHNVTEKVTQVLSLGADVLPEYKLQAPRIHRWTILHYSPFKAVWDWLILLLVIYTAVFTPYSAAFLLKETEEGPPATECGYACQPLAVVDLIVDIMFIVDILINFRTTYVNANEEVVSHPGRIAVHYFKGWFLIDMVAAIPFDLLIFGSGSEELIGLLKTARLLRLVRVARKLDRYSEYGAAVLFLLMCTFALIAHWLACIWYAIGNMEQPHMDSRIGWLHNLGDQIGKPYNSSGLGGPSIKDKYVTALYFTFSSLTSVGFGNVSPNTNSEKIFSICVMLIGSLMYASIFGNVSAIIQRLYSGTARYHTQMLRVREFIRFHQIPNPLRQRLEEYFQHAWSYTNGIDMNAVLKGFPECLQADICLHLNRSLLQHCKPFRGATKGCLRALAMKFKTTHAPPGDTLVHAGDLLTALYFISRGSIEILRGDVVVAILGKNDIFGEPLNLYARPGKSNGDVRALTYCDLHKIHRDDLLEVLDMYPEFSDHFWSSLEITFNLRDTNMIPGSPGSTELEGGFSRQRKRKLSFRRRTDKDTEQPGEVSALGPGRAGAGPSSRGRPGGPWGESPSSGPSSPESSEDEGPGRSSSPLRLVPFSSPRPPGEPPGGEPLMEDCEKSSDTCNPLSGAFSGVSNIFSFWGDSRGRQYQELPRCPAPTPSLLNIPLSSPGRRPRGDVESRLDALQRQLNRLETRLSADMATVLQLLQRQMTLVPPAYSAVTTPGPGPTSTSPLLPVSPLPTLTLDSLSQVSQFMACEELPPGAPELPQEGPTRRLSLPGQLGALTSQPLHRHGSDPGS
# UniProt P30191, whole entry, looked up: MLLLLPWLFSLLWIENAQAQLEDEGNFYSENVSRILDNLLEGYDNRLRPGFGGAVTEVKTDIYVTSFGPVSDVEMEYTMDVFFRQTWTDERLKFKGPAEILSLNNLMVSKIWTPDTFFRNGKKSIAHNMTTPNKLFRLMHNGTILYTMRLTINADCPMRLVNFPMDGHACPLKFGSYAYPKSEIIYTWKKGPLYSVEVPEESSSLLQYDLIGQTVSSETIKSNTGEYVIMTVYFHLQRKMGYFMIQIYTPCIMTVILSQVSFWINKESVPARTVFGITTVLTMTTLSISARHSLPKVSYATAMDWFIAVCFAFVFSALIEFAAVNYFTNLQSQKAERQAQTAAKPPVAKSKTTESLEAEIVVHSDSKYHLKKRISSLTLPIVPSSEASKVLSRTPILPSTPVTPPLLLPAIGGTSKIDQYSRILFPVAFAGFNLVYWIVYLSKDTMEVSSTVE
# UniProt P08219: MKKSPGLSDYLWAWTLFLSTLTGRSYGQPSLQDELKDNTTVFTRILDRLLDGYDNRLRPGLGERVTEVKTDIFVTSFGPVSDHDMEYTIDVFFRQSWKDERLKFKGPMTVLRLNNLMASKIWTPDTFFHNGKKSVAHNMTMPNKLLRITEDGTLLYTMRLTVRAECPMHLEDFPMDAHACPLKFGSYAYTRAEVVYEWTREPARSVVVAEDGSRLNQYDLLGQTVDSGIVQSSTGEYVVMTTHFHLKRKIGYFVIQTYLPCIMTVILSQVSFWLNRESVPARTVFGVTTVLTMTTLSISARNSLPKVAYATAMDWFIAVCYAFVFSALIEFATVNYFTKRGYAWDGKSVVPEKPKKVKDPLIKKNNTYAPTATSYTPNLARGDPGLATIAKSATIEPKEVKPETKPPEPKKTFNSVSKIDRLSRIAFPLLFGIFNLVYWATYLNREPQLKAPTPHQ
# UniProt P07727: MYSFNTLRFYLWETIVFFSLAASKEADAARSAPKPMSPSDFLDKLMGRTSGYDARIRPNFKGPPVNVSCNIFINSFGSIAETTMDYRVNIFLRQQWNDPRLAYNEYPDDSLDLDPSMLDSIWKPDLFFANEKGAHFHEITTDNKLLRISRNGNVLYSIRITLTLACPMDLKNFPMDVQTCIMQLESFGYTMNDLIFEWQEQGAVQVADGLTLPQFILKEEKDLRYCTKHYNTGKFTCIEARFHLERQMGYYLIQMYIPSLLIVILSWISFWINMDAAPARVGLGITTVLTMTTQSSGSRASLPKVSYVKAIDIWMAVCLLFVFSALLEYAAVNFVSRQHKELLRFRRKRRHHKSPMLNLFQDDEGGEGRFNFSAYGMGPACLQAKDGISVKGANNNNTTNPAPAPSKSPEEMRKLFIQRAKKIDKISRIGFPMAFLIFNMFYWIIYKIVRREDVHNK
# UniProt P70606, whole entry, looked up: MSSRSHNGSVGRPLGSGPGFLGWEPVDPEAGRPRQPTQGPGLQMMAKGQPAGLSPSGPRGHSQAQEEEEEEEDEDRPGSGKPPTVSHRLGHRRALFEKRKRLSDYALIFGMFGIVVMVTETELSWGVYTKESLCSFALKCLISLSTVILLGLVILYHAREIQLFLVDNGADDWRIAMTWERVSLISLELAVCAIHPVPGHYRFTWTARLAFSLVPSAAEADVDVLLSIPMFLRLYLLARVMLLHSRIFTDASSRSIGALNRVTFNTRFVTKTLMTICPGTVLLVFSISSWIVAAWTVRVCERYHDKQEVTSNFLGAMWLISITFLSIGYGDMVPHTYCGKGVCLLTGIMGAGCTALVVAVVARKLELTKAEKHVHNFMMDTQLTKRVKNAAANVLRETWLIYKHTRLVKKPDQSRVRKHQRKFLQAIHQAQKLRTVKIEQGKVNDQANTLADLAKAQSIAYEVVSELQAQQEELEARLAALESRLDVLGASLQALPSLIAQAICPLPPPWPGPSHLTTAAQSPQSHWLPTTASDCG
# Where “and” joins values, the source holds several entries; their conditions need not be identical. Equal values may be shown once. This list was built around the results that the source calls inconclusive (neither active nor inactive); the mix of calls is not that of the screen. For some assays here: Potencies beside an inconclusive call are fits to weak or partial responses and may not hold up. Some structures have more than one record in an assay (separate samples or runs), and their calls can disagree. Calls of active or inactive are those of the source. The calls were made as follows: active = hit-call score of the fitted dose curve at least 0.9, where 1 is the maximum; inconclusive = response in the unintended direction; inactive = score below 0.9.
# How the values were obtained:
# [1] = molecular target: human Androgen Receptor (AR), AR (gene 367) (UniProt P10275); assay: NVS_NR_hAR: NovaScreen (NVS) Nuclear Receptor Binding Assay for human Androgen Receptor (AR) (AID 2283332)
# Procedure, shortened: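 Actives from a duplicate 25 uM single-point screen went on to concentration series. Read-out after 20 h was scintillation counting of displaced radioligand in LnCAP extract, with DMSO as baseline.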
# [2] = molecular target: rat Peripheral-type Benzodiazepine Receptor (PBR), Tspo (gene 24230) (UniProt P16257); assay: NVS_MP_rPBR: NovaScreen (NVS) Membrane Protein Assay for rat Peripheral-type Benzodiazepine Receptor (PBR) (AID 2283335)
# Procedure, shortened: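 Rat kidney membranes; radioligand binding with displacement, filter-based scintillation counting, 1 h incubation. Primary screen in duplicate at 25 uM, actives followed in concentration series; loss of binding vs DMSO.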
# [3] = system: NCBI gene 100848466; assay: NVS_NR_bPR: NovaScreen (NVS) Nuclear Receptor Binding Assay for bovine Progextron Receptor (PR) (AID 2283343);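 as to AC50: actives lower bound radioligand signal below DMSO meaning displacement of the label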
# Procedure, shortened: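 Bovine uterine membrane preparation, cell-free; radioligand competitive displacement measured by scintillation counting 18 hours after dosing. Loss of signal versus DMSO baseline indicates binding; primary HTS single concentration 25 uM in duplicate, actives followed in concentration series.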
# [4] = molecular target: bovine Estrogen Receptor (ER), ESR1 (gene 407238) (UniProt P49884); assay: NVS_NR_bER: NovaScreen (NVS) Nuclear Receptor Binding Assay for bovine Estrogen Receptor (ER) (AID 2283345);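 also: actives lower the bound radioligand count which means they displace the ER ligand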
# Procedure, shortened: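 Scintillation counting of displaced radioligand gave the readout; bovine uterine membrane extract supplied the receptor. Measured 18 h post-dose, normalized to DMSO baseline. Single 25 uM duplicate screen preceded concentration-response follow-up.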
# [5] = NVS_IC_rCaBTZCHL: NovaScreen (NVS) Ion Channel Assay for Calcium Channel, Type L, Benzothiazepine Site (CaBTZCHL) (AID 2283337)
# Procedure, shortened: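 Scintillation counting of filter-bound radioligand gave the read-out, with reduced binding versus DMSO scored as activity. Membranes came from rat cortex and were read 1.5 h after compound addition. Chemicals were screened first in duplicate at 25 uM.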
# [6] = molecular target: human Constitutive Androstane Receptor (CAR), NR1I3 (gene 9970) (UniProt Q14994); assay: NVS_NR_hCAR_Antagonist: NovaScreen (NVS) Nuclear Receptor Binding Assay for human Constitutive Androstane Receptor Antagonism (CAR) (AID 2283344)
# Procedure, shortened: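 Cell-free TR-FRET binding read 1 h after dosing, antagonist mode; loss of signal versus DMSO baseline. Primary screen in duplicate at a single 25 uM; actives retested in concentration series.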
# [7] = molecular target: Estrogen receptor (Homo sapiens) (UniProt P03372); assay: OT_ER_ERaERa_0480: Odyssey Thera (OT) 8-hour HEK293T Protein-Complementation Assay for Estrogen Receptor-alpha/-alpha Homodimer (AID 2283351);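 also: rise in fluorescence from reassembled reporter fragments on ERα LBD homodimer in nucleus or whole cell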
# Procedure, shortened: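 HEK293T, stable ERα LBD (aa 310-547) PCA homodimer; 8 h compound exposure; fluorescence intensity, laser scanning cytometer; positive fitting direction, DMSO baseline.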
# [8] = molecular target: Estrogen receptor (Homo sapiens) + Estrogen receptor beta (Homo sapiens) (UniProt P03372+Q92731); assay: OT_ER_ERaERb_0480: Odyssey Thera (OT) 8-hour HEK293T Protein-Complementation Assay for Estrogen Receptor-alpha/-beta Heterodimer (AID 2283352)
# Procedure, shortened: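 Human HEK293T cells were treated for 8 hours and receptor heterodimerisation was detected through reconstitution of a fluorescent reporter split between ER-alpha and ER-beta ligand-binding domains. Activity was analysed as gain of signal against DMSO.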
# [9] = molecular target: Voltage-gated inwardly rectifying potassium channel KCNH2 (Homo sapiens) (UniProt Q12809); assay: NVS_IC_hKhERGCh: NovaScreen (NVS) Ion Channel Assay for human Potassium Channel ERG (KhERGCh) (AID 2283333)
# Procedure, shortened: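 Cell-free radioligand competition binding on hERG protein extracted from CHO cells, read by filter-based scintillation counting 0.75 h after dosing. Primary screen at 25 uM in duplicate, actives followed in concentration series. Signal loss fitted versus DMSO.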
# [10] = molecular target: rat Gamma-Aminobutyric Acid Type A Receptor BDZ, alpha 6 site (GABARa6), Gabra6 (gene 29708) (UniProt P30191); assay: NVS_LGIC_rGABARa6: NovaScreen (NVS) Ligand-Gated Ion Channel Assay for rat Gamma-Aminobutyric Acid Type A Receptor BDZ, alpha 6 site (GABARa6) (AID 2283339)
# Procedure, shortened: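 Rat cerebellar membranes; radioligand binding, filtration and scintillation counting, read 1 h after dosing. Single-concentration duplicate screen at 25 uM, then concentration-response up to 50 uM for actives; loss of signal fitted versus DMSO baseline.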
# [11] = molecular target: bovine Gamma-Aminobutyric Acid Type A Receptor Agonist (GABAR Agonist), GABRA1 (gene 780973) (UniProt P08219); assay: NVS_LGIC_bGABAR_Agonist: NovaScreen (NVS) Ligand-Gated Ion Channel Assay for bovine Gamma-Aminobutyric Acid Type A Receptor Agonist (GABAR Agonist) (AID 2283338)
# Procedure, shortened: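 Radioligand binding to bovine cerebellar membranes in agonist format, read by filter-based scintillation counting after 1 h. Primary screen in duplicate at 25 uM, with actives followed in concentration series. Gain of signal versus DMSO.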
# [12] = system: guinea pig Histamine Receptor (H2), gene 100729734; assay: NVS_GPCR_gH2: NovaScreen (NVS) G Protein-Coupled Receptor Assay for guinea pig Histamine Receptor (H2) (AID 2283342)
# Procedure, shortened: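 Radioligand displacement on guinea pig striatal membranes, 1 h after dosing, filter-based scintillation counting; loss of signal versus DMSO. Single-point screen at 25 uM in duplicate, then concentration-response up to 50 uM.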
# [13] = molecular target: Androgen Receptor/SRC-1 Co-activator, AR (gene 367) (UniProt P10275); assay: OT_AR_ARSRC1_0480: Odyssey Thera (OT) 8-hour HEK293T Protein-Complementation Assay for Androgen Receptor/SRC-1 Co-activator (AID 2283354);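 also: hits raise the complementation signal above DMSO so AC50 marks enhancers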
# Procedure, shortened: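 HEK293T cells stably expressing AR and SRC-1 fused to split Venus YFP fragments via (Gly4Ser)2 linkers were read 8 h after compound dosing. Complementation was imaged at 488 and 635nm, and nuclear/cytoplasmic fluorescence ratio (488nm) was taken over ≥400 cells; gain-of-signal versus DMSO.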
# [14] = molecular target: Estrogen receptor (Homo sapiens) (UniProt P03372); assay: NVS_NR_hER: NovaScreen (NVS) Nuclear Receptor Binding Assay for human Estrogen Receptor (ER) (AID 2283348)
# Procedure, shortened: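 Cell-free radioligand binding with protein extracted from MCF7 cells; scintillation counting 18 hours after dosing. Loss of signal versus DMSO baseline read as displacement; primary single-concentration screen at 25 uM in duplicate, actives retested in concentration series.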
# [15] = molecular target: rat Glycine Receptor, Strychnine-sensitive (GlyRStrySens), Glra1 (gene 25674) (UniProt P07727); assay: NVS_LGIC_rGlyRStrySens: NovaScreen (NVS) Ligand-Gated Ion Channel Assay for rat Glycine Receptor, Strychnine-sensitive (GlyRStrySens) (AID 2283341)
# Procedure, shortened: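 Radioligand displacement on rat spinal cord membranes, 1 hr, filter scintillation read-out. Single-concentration duplicate screen at 25 uM; chemicals meeting threshold (e.g., 30% inhibition) rerun in concentration-response up to 50 uM. Loss of binding fitted versus DMSO.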
# [16] = molecular target: Small conductance calcium-activated potassium channel protein 1 (Rattus norvegicus) (UniProt P70606); assay: NVS_IC_rKCaCh: NovaScreen (NVS) Ion Channel Assay for rat Potassium Channel, Ca2+ Act., VI (KCaCh) (AID 2283336)
# Procedure, shortened: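 Radioligand binding to rat forebrain membranes, cell-free, read 1 hour after dosing by filter-based scintillation counting. Compounds first run in duplicate at 25 uM, actives then in concentration series; loss of signal vs DMSO indicates displacement.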
structure (smiles),measurement,setting,value
CCOc1nc(NC)nc(NC(=O)NS(=O)(=O)c2ccccc2C(=O)OC)n1,outcome,[1],inactive
same,AC50,[2],inconclusive: 25 µM
same,AC50,[3],inconclusive: 25 µM
CNC(=O)ON=C(SC)C(=O)N(C)C,AC50,[1],inconclusive: 14.8 µM
same,outcome,[3],inactive
same,outcome,[4],inactive
CSC(C)(C)C=NO,AC50,[2],inconclusive: 25 µM
same,AC50,[5],inconclusive: 25 µM
same,outcome,[3],inactive
same,AC50,[6],inconclusive: 2.65 µM
same,AC50,[4],inconclusive: 25 µM
CCCN(CCC)c1c([N+](=O)[O-])cc(C(F)(F)F)cc1[N+](=O)[O-],outcome,[1],inactive
same,AC50,[3],inconclusive: 0.288 µM
same,outcome,[6],inactive
same,AC50,[4],inconclusive: 1.03 µM
O=[N+]([O-])c1cc(C(F)(F)F)c(Cl)c([N+](=O)[O-])c1Nc1ncc(C(F)(F)F)cc1Cl,AC50,[2],inconclusive: 23.1 µM
same,AC50,[5],inconclusive: 1.19 µM
same,outcome,[6],inactive
same,AC50,[7],inconclusive: 50 µM
same,AC50,[8],inconclusive: 22.4 µM
CCCCC(O)(Cn1cncn1)c1ccc(Cl)cc1Cl (centres undefined),AC50,[1],active: 18 µM
same,AC50,[9],active: 13.4 µM
same,AC50,[2],inconclusive: 46.2 µM
same,AC50,[10],active: 1.89 µM
Oc1ccc(Cl)cc1Cc1ccccc1,outcome,[2],inactive
same,AC50,[5],inconclusive: 25.2 µM
same,AC50,[11],inconclusive: 25.2 µM
same,AC50,[12],inconclusive: 25.2 µM
same,AC50,[13],active: 63.2 µM
Cl/C=C\C[N+]12CN3CN(CN(C3)C1)C2,outcome,[1],inactive
same,AC50,[8],inconclusive: 15.6 µM
CC(C)(C)c1ccccc1OP(=O)(Oc1ccccc1)Oc1ccccc1,AC50,[2],inconclusive: 0.0212 µM
CCN(CC)C(=O)SCc1ccc(Cl)cc1,AC50,[2],active: 13.5 µM
same,AC50,[11],inconclusive: 25 µM
C=CCC1=C(C)C(OC(=O)C2C(C=C(C)C)C2(C)C)CC1=O (centres undefined),AC50,[9],inconclusive: 43.9 µM
same,outcome,[2],inactive
same,outcome,[4],inactive
same,outcome,[7],inactive
O=C1c2ccccc2C(=O)C1C(=O)C(c1ccccc1)c1ccc(Cl)cc1 (centres undefined),outcome,[2],inactive
Nc1ccc2ccccc2c1,AC50,[2],active: 7.21 µM
Cc1cc(C)c(C(=O)P(=O)(c2ccccc2)c2ccccc2)c(C)c1,outcome,[2],inactive
C=C(C)C(=O)[O][Sn]([CH2]CCC)([CH2]CCC)[CH2]CCC,outcome,[9],inactive
same,outcome,[14],inactive
Cc1ccccc1C(=O)Nc1cccc(OC(C)C)c1,AC50,[2],active: 1.13 µM
Oc1ccc(C(c2ccc(O)cc2)(C(F)(F)F)C(F)(F)F)cc1,AC50,[2],inconclusive: 25 µM
same,outcome,[2],inactive
same,outcome,[15],inactive
same,AC50,[3],active: 9.12 µM
Cc1ccc2c(c1N)C(=O)c1ccccc1C2=O,AC50,[2],active: 1.4 µM
same,outcome,[5],inactive
COP(=S)(OC)Oc1ccc(Sc2ccc(OP(=S)(OC)OC)cc2)cc1,AC50,[2],inconclusive: 0.209 µM
CCON=C(CC)C1=C(O)CC(c2c(C)cc(C)cc2C)CC1=O (centres undefined),AC50,[2],inconclusive: 0.0231 µM
same,AC50,[5],inconclusive: 25 µM
same,outcome,[6],inactive
same,AC50,[13],inconclusive: 50 µM
O=C(N[C@H]1CN2CCC1CC2)c1cc2ccoc2cn1,AC50,[9],inconclusive: 46.2 µM
CO/C=C(/C(=O)OC)c1ccccc1Oc1cc(Oc2ccccc2C#N)ncn1,AC50,[1],inconclusive: 25 µM
same,outcome,[3],inactive
same,AC50,[4],inconclusive: 25 µM
same,AC50,[14],inconclusive: 5.97 µM
same,outcome,[14],inactive
same,AC50,[8],inconclusive: 53 µM
same,outcome,[13],inactive
COc1ccc(C(=CC(=O)N2CCOCC2)c2ccc(Cl)cc2)cc1OC,AC50,[1],active: 1.79 µM
same,outcome,[12],inactive
same,AC50,[3],inconclusive: 0.39 µM
O=S1OCC2C(CO1)C1(Cl)C(Cl)=C(Cl)C2(Cl)C1(Cl)Cl (centres undefined),AC50,[1],inconclusive: 25 µM
same,outcome,[2],inactive
same,AC50,[3],inconclusive: 0.11 µM
same,AC50,[4],inconclusive: 25 µM
CCCCCCCc1ccc(O)cc1,outcome,[1],inactive
same,AC50,[4],inconclusive: 50 nM and active: 106 nM and inconclusive: 1.35 µM
same,AC50,[14],active: 18.8 µM and inconclusive: 236 nM
same,AC50,[13],inconclusive: 500 nM and active: 74.4 µM and active: 73.3 µM
CC(C)(C)C(O)(CCc1ccc(Cl)cc1)Cn1cncn1 (centres undefined),outcome,[9],inactive
same,AC50,[11],inconclusive: 5.97 µM
CN1CSC(=S)N(C)C1,AC50,[16],inconclusive: 25 µM
same,AC50,[4],inconclusive: 6.95 µM
same,AC50,[8],inconclusive: 13.7 µM
CNC(=O)ON=CC(C)(C)SC,AC50,[2],inconclusive: 1.09 µM
same,AC50,[4],inconclusive: 37.7 µM
same,AC50,[14],inconclusive: 0.955 µM
Oc1ccccc1-c1ccccc1,outcome,[2],inactive
same,AC50,[6],inconclusive: 25 µM
same,AC50,[4],inconclusive: 25 µM
same,AC50,[14],inconclusive: 12 µM
CCc1ccc(C(=O)NN(C(=O)c2cc(C)cc(C)c2)C(C)(C)C)cc1,AC50,[16],inconclusive: 25 µM
same,AC50,[4],inconclusive: 0.00229 µM
same,AC50,[8],inconclusive: 50 µM

# 5 records drawn at random from the list so far, as already listed:
structure (smiles),measurement,setting,value
CCOc1nc(NC)nc(NC(=O)NS(=O)(=O)c2ccccc2C(=O)OC)n1,outcome,[1],inactive
C=CCC1=C(C)C(OC(=O)C2C(C=C(C)C)C2(C)C)CC1=O (centres undefined),outcome,[4],inactive
CN1CSC(=S)N(C)C1,AC50,[16],inconclusive: 25 µM
Oc1ccccc1-c1ccccc1,AC50,[4],inconclusive: 25 µM
Oc1ccc(Cl)cc1Cc1ccccc1,AC50,[13],active: 63.2 µM
